From the supplement of paper PMC8728848
This is one part of the list.

Tests used:
Assay in all cases: glycan array binding signal (z-score within array); higher = stronger binding
Settings in all cases: glycan notation: IUPAC condensed, linker removed
Fuc(a1-2)Gal = target: Fuc(a1-2)Gal
How it was run: (§1)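 The binding signal is a Z-score computed within each array. Data were drawn from 3228 arrays in the Consortium for Functional Glycomics database, restricted to those with a known protein sequence. Scores were averaged over arrays of the same protein sequence at different concentrations or buffers, and over linkers, and negative values can be taken as non-binding.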

Fuc(a1-2)Gal(b1-3)GalNAc = target: Fuc(a1-2)Gal(b1-3)GalNAc
How it was run: as §1

[1] = target: Fuc(a1-2)Gal(b1-3)GalNAc(a1-3)[Fuc(a1-2)]Gal(b1-4)Glc
How it was run: as §1

[2] = target: Fuc(a1-2)Gal(b1-3)GalNAc(a1-3)[Fuc(a1-2)]Gal(b1-4)GlcNAc
How it was run: as §1

[3] = target: Fuc(a1-2)Gal(b1-3)GalNAc(b1-3)Gal
How it was run: as §1

[4] = target: Fuc(a1-2)Gal(b1-3)GalNAc(b1-3)Gal(a1-4)Gal(b1-4)Glc
How it was run: as §1

[5] = target: Fuc(a1-2)Gal(b1-3)GalNAc(b1-4)[Neu5Ac(a2-3)]Gal(b1-4)Glc
How it was run: as §1

Fuc(a1-2)Gal(b1-3)GlcNAc = target: Fuc(a1-2)Gal(b1-3)GlcNAc
How it was run: as §1

[6] = target: Fuc(a1-2)Gal(b1-3)GlcNAc(b1-2)Man(a1-3)[Fuc(a1-2)Gal(b1-3)GlcNAc(b1-2)Man(a1-6)]Man(b1-4)GlcNAc(b1-4)GlcNAc
How it was run: as §1

[7] = target: Fuc(a1-2)Gal(b1-3)GlcNAc(b1-3)Gal(b1-4)Glc
How it was run: as §1

[8] = target: Fuc(a1-2)Gal(b1-3)GlcNAc(b1-3)[Fuc(a1-3)[Gal(b1-4)]GlcNAc(b1-6)]Gal(b1-4)Glc
How it was run: as §1

[9] = target: Fuc(a1-2)Gal(b1-3)[Fuc(a1-4)]GlcNAc
How it was run: as §1

[10] = target: Fuc(a1-2)Gal(b1-3)[Fuc(a1-4)]GlcNAc(b1-2)Man(a1-3)[Fuc(a1-2)Gal(b1-3)[Fuc(a1-4)]GlcNAc(b1-2)Man(a1-6)]Man(b1-4)GlcNAc(b1-4)GlcNAc
How it was run: as §1

[11] = target: Fuc(a1-2)Gal(b1-3)[Fuc(a1-4)]GlcNAc(b1-3)[Fuc(a1-3)[Gal(b1-4)]GlcNAc(b1-6)]Gal(b1-4)Glc
How it was run: as §1

[12] = target: Fuc(a1-2)Gal(b1-3)[Fuc(a1-4)]GlcNAc(b1-3)[Gal(b1-4)GlcNAc(b1-6)]Gal(b1-4)Glc
How it was run: as §1

Fuc(a1-2)Gal(b1-4)Glc = target: Fuc(a1-2)Gal(b1-4)Glc
How it was run: as §1

Fuc(a1-2)Gal(b1-4)Glc6S = target: Fuc(a1-2)Gal(b1-4)Glc6S
How it was run: as §1

Fuc(a1-2)Gal(b1-4)GlcNAc = target: Fuc(a1-2)Gal(b1-4)GlcNAc
How it was run: as §1

[13] = target: Fuc(a1-2)Gal(b1-4)GlcNAc(b1-2)Man(a1-3)[Fuc(a1-2)Gal(b1-4)GlcNAc(b1-2)Man(a1-6)]Man(b1-4)GlcNAc(b1-4)GlcNAc
How it was run: as §1

[14] = target: Fuc(a1-2)Gal(b1-4)GlcNAc(b1-3)Gal(b1-4)GlcNAc
How it was run: as §1

[15] = target: Fuc(a1-2)Gal(b1-4)GlcNAc(b1-3)Gal(b1-4)GlcNAc(b1-3)Gal(b1-4)GlcNAc
How it was run: as §1

[16] = target: Fuc(a1-2)Gal(b1-4)GlcNAc(b1-3)GalNAc
How it was run: as §1

[17] = target: Fuc(a1-2)Gal(b1-4)GlcNAc6S
How it was run: as §1

[18] = target: Fuc(a1-2)Gal(b1-4)[Fuc(a1-3)]GlcNAc
How it was run: as §1

[19] = target: Fuc(a1-2)Gal(b1-4)[Fuc(a1-3)]GlcNAc(b1-2)Man(a1-3)[Fuc(a1-2)Gal(b1-4)[Fuc(a1-3)]GlcNAc(b1-2)Man(a1-6)]Man(b1-4)GlcNAc(b1-4)GlcNAc
How it was run: as §1

[20] = target: Fuc(a1-2)Gal(b1-4)[Fuc(a1-3)]GlcNAc(b1-3)Gal(b1-4)[Fuc(a1-3)]GlcNAc
How it was run: as §1

[21] = target: Fuc(a1-2)Gal(b1-4)[Fuc(a1-3)]GlcNAc(b1-3)Gal(b1-4)[Fuc(a1-3)]GlcNAc(b1-3)Gal(b1-4)[Fuc(a1-3)]GlcNAc
How it was run: as §1

Fuc(a1-2)Gal6S(b1-4)Glc = target: Fuc(a1-2)Gal6S(b1-4)Glc
How it was run: as §1

[22] = target: Fuc(a1-2)Gal6S(b1-4)Glc6S
How it was run: as §1

[23] = target: Fuc(a1-2)Gal6S(b1-4)GlcNAc
How it was run: as §1

B1: CLEC9a (Mus musculus), Q8BRU4 (protein)
chain: MHAEEIYTSLQWDIPTSEASQKCQSPSKCSGAWCVVTMISCVVCMGLLATSIFLGIKFFQVSSLVLEQQERLIQQDTALVNLTQWQRKYTLEYCQALLQRSLHSGSDCSPCPHNWIQNGKSCYYVFERWEMWNISKKSCLKEGASLFQIDSKEEMEFISSIGKLKGGNKYWVGVFQDGISGSWFWEDGSSPLSDLLPAERQRSAGQICGYLKDSTLISDKCDSWKYFICEKKAFGSCI
glycan array binding signal (z-score) (Fuc(a1-2)Gal): -0.206 | glycan array binding signal (z-score) (Fuc(a1-2)Gal(b1-3)GalNAc): 0.078 | glycan array binding signal (z-score) [1]: 0.532 | glycan array binding signal (z-score) [2]: 0.439 | glycan array binding signal (z-score) [3]: 0.494 | glycan array binding signal (z-score) [4]: -1.01 | glycan array binding signal (z-score) [5]: 0.535 | glycan array binding signal (z-score) (Fuc(a1-2)Gal(b1-3)GlcNAc): 0.506 | glycan array binding signal (z-score) [6]: -0.158 | glycan array binding signal (z-score) [7]: 0.895 | glycan array binding signal (z-score) [8]: -0.348 | glycan array binding signal (z-score) [9]: 0.259 | glycan array binding signal (z-score) [10]: 0.513 | glycan array binding signal (z-score) [11]: 0.055 | glycan array binding signal (z-score) [12]: -0.641 | glycan array binding signal (z-score) (Fuc(a1-2)Gal(b1-4)Glc): 1.19 | glycan array binding signal (z-score) (Fuc(a1-2)Gal(b1-4)Glc6S): 0.626 | glycan array binding signal (z-score) (Fuc(a1-2)Gal(b1-4)GlcNAc): -0.52 | glycan array binding signal (z-score) [13]: -0.509 | glycan array binding signal (z-score) [14]: -0.267 | glycan array binding signal (z-score) [15]: -0.027 | glycan array binding signal (z-score) [16]: 1.67 | glycan array binding signal (z-score) [17]: 1.36 | glycan array binding signal (z-score) [18]: 0.439 | glycan array binding signal (z-score) [19]: 2.21 | glycan array binding signal (z-score) [20]: -0.11 | glycan array binding signal (z-score) [21]: 0.048 | glycan array binding signal (z-score) (Fuc(a1-2)Gal6S(b1-4)Glc): 0.249 | glycan array binding signal (z-score) [22]: -0.572 | glycan array binding signal (z-score) [23]: 0.366
